# Source: paper doi:10.1101/2020.05.06.080432
# These are yes or no findings as the source states them, for the method shown. Binding seen in cells or lysates may run through a third protein. Here binding means that the protein was enriched with, or labelled near, the bait; the list need not be complete.
# Molecular target: His6-SUMO-His6-sP26 (Methanosarcina mazei)
# Experiment: affinity purification with mass spectrometry
binder,measurement,value
"glutamine synthetase (GlnA1), endogenous in M. mazei cell extract (enzyme, UniProt Q8PY99 1-447) MVQMKKCTTKEDVLEAVKERDVKFIRTQFTDTLGIIKSWAIPAEQLEEAFENGVMFDGSSIQGFTRIEESDMKLALDPSTFRILPWRPATGAVARILGDVYLPDGNPFKGDPRYVLKTAIKEAEKMGFSMNVGPELEFFLFKLDANGNPTTELTDQGGYFDFAPLDRAQDVRRDIDYALEHMGFQIEASHHEVAPSQHEIDFRFGDVLCTADNVVTFKYVVKSIAYHKGYYASFMPKPLFGVNGSGMHSNQSLFKDGKNVFYDPDTPTKLSQDAMYYIGGLLKHIREFTAVTNPVVNSYKRLVPGYEAPVYISWSAQNRSSLIRIPATRGNGTRIELRCPDPACNPYLAFALMLRAGLEGIKNKIDPGEPTNVNIFHLSDKEREERGIRSLPADLKEAIDEMKGSKFVKEALGEHVFSHYLCAKEMEWDEYKAVVHPWELSRYLSML",binding,binds
